Our source for the binding values is paper PMC10370356, “Molecular dissection studies of TAC1, a transcription activator of Candida drug resistance genes of the human pathogenic fungus Candida albicans” (Frontiers in Microbiology, 2023).

Protein sequences, listed by entry. Tags and fused reporters are not part of them. Residues count along the entry.
UniProt O43133, residues 2-238: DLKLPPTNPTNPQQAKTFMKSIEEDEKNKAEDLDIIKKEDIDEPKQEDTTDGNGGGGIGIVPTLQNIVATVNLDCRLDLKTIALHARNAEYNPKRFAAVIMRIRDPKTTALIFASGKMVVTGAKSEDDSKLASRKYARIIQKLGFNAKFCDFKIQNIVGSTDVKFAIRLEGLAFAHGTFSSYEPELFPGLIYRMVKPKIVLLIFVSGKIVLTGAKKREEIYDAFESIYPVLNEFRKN
UniProt A0A1D8PN96, residues 880-981: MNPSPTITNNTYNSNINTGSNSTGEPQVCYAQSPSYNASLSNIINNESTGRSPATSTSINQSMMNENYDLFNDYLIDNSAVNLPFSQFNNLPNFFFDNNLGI

No constants are given. Whether binding was seen depends on the method and setting. Some binding calls cover weakened binding; strength is not graded here.

This assay deals with Gal4-DBD fusion of C. albicans TBP (yeast two-hybrid bait) (C. albicans) (UniProt O43133). Nature of the assay: two-hybrid; AAD-pACT2 (prey) and TBP-pAS2 (Gal4-DBD bait) in S. cerevisiae PJ69-4A; HIS3 (with 3AT) and LacZ (X-gal) reporters on SD-leu-trp plates.

Turning to “Tac1-AAD in pACT2 (yeast two-hybrid prey) (from UniProt A0A1D8PN96 880-981) (domain or fragment)”, the binding entry was “binds”.
